Assay results from patent publication US6797461B2, “Tryptase substrates and assay for tryptase activity using same” (Promega Corporation, priority 2000, dated 2004).
At least one peptide structure holds a part that was inferred or is arguable (an end, a ring closure or a residue). Residues, ends and D or L forms follow the SMILES beside them. *: point of attachment. ACC = NC(=O)Cc1cc(=O)oc2cc(N*)ccc12

Protein sequences, listed by entry. Tags and fused reporters are not part of them. Residues count along the entry.
UniProt Q15661, 31-275: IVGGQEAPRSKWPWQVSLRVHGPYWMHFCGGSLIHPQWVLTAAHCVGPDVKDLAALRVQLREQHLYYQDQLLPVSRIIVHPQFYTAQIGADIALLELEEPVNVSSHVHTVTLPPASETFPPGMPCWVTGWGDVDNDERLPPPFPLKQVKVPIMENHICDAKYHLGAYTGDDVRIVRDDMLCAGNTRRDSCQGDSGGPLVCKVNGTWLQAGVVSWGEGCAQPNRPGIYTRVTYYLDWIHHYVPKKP

Target: T1, Human recombinant β-I tryptase (Homo sapiens, UniProt Q15661)
T1 construct: Secreted mature βI- and βII-tryptases were purified to homogeneity; purchased Promega
Test: Specificity of Ac-PRNK-ACC cleavage: tryptase versus other blood borne serine proteases (FIG. 5)
Type: biochemical
Details: 100 μM substrate, 1 minute, room temperature; compared with human alpha-thrombin and bovine factor Xa protease

**Q.** How did the “substrate specificity for tryptase in relation to other blood borne serine proteases” value turn out when `CC(=O)N1CCC[C@H]1C(=O)N[C@@H](CCCNC(=N)N)C(=O)N[C@@H](CC(N)=O)C(=O)N[C@@H](CCCCN)C(=O)Nc1ccc2c(CC(N)=O)cc(=O)oc2c1` [Ac-PRNK-ACC, Acetyl-Prolyl-Arginyl-Asparaginyl-Lysyl-aminoacetamide coumarin] (Ac-PRNK-{ACC}) was run?
**A.** specific substrate for tryptase
